Values are relative to the signal before dosing, not to a vehicle control; the signal also falls without drug.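 Fibroblast labels name human fibroblasts: mostly primary ones from tissues such as uterus (C12385, HUF), lung (H6013), bone (Hs27A), adrenal (HADF) and skin (WS1), plus mammary HMF and breast cancer-associated Hs343T. The cancer cells are basal-like or mesenchymal-like triple-negative breast cancer lines. The paper calls a changed response a hit when it shifts by more than 3x the replicate standard deviation. The tissue of the other fibroblasts is not given here.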
Tested on: HCC1143
Test: relative JC-1 red fluorescence (viability) vs pre-drug, coculture with fibroblast (fraction); higher = more viable cancer cells
Method: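 JC-1 labelled TNBC cells cocultured 1:1 (1,500 cells each) with CellTrace Violet stained primary or stromal fibroblasts in 384-well plates in FluoroBrite medium, treated with one of 42 anticancer drugs at 0.1, 1, 10 or 100 uM. JC-1 red fluorescence (mitochondrial integrity in cancer cells only) was read by plate reader every 8 h for 72 h. Values are normalised to each well's pre-drug value. The stock of one drug was tenfold lower, so its dose labels may be too high.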

CC(=O)O[C@@]12CO[C@@H]1C[C@H](O)[C@@]1(C)C(=O)[C@H](O)C3=C(C)[C@@H](OC(=O)[C@H](O)[C@@H](NC(=O)OC(C)(C)C)c4ccccc4)C[C@@](O)([C@@H](OC(=O)c4ccccc4)[C@H]21)C3(C)C [Docetaxel]
relative JC-1 red fluorescence
Details | 8 h | 16 h | 24 h | 32 h | 40 h | 48 h | 56 h | 64 h | 72 h
0.1 µM, coculture fibroblast: C12385 | 0.822 | 0.686 | 0.57 | 0.478 | 0.379 | 0.335 | 0.298 | 0.285 | 0.293
0.1 µM, coculture fibroblast: H6013 | 0.79 | 0.735 | 0.691 | 0.674 | 0.608 | 0.608 | 0.589 | 0.592 | 0.52
0.1 µM, coculture fibroblast: H6019 | 0.792 | 0.682 | 0.597 | 0.513 | 0.465 | 0.447 | 0.413 | 0.388 | 0.363
0.1 µM, coculture fibroblast: H6076 | 0.8023 | 0.807 | 0.737 | 0.695 | 0.616 | 0.596 | 0.57 | 0.554 | 0.564
0.1 µM, coculture fibroblast: H6231 | 0.8206 | 0.769 | 0.661 | 0.613 | 0.529 | 0.491 | 0.449 | 0.4181 | 0.4148
0.1 µM, coculture fibroblast: HADF | 0.7618 | 0.691 | 0.655 | 0.626 | 0.54 | 0.531 | 0.502 | 0.496 | 0.428
0.1 µM, coculture fibroblast: HCFa | 0.78 | 0.697 | 0.641 | 0.588 | 0.502 | 0.471 | 0.418 | 0.385 | 0.323
0.1 µM, coculture fibroblast: HCPF | 0.827 | 0.801 | 0.72 | 0.641 | 0.595 | 0.546 | 0.495 | 0.457 | 0.446
0.1 µM, coculture fibroblast: HHSteC | 0.817 | 0.736 | 0.677 | 0.614 | 0.528 | 0.494 | 0.45 | 0.428 | 0.364
0.1 µM, coculture fibroblast: HMF | 0.80705 | 0.837 | 0.753 | 0.6579 | 0.576 | 0.521 | 0.455 | 0.416 | 0.4
0.1 µM, coculture fibroblast: HPFa | 0.897 | 0.766 | 0.7076 | 0.6 | 0.543 | 0.525 | 0.471 | 0.455 | 0.442
0.1 µM, coculture fibroblast: HUF | 0.873 | 0.7423 | 0.642 | 0.554 | 0.489 | 0.451 | 0.403 | 0.383 | 0.366
0.1 µM, coculture fibroblast: Hs5 | 0.85501 | 0.835 | 0.783 | 0.757 | 0.66 | 0.625 | 0.598 | 0.565 | 0.576
0.1 µM, coculture fibroblast: Hs27A | 0.7 | 0.582 | 0.526 | 0.513 | 0.395 | 0.389 | 0.357 | 0.344 | 0.288
0.1 µM, coculture fibroblast: Hs343T | 0.799 | 0.797 | 0.749 | 0.705 | 0.616 | 0.569 | 0.505 | 0.476 | 0.465
0.1 µM, coculture fibroblast: WS1 | 0.81 | 0.704 | 0.601 | 0.495 | 0.393 | 0.351 | 0.326 | 0.311 | 0.308
1 µM, coculture fibroblast: C12385 | 0.864 | 0.793 | 0.696 | 0.62 | 0.555 | 0.534 | 0.512 | 0.503 | 0.52
1 µM, coculture fibroblast: H6013 | 0.765 | 0.6757 | 0.632 | 0.616 | 0.548 | 0.549 | 0.533 | 0.537 | 0.477
1 µM, coculture fibroblast: H6019 | 0.789 | 0.689 | 0.637 | 0.573 | 0.538 | 0.532 | 0.507 | 0.484 | 0.471
1 µM, coculture fibroblast: H6076 | 0.81 | 0.754 | 0.736 | 0.7618 | 0.668 | 0.672 | 0.66 | 0.651 | 0.692
1 µM, coculture fibroblast: H6231 | 0.816 | 0.778 | 0.6691 | 0.649 | 0.555 | 0.528 | 0.485 | 0.452 | 0.437
1 µM, coculture fibroblast: HADF | 0.745 | 0.632 | 0.588 | 0.551 | 0.465 | 0.451 | 0.41 | 0.39 | 0.328
1 µM, coculture fibroblast: HCFa | 0.801 | 0.663 | 0.597 | 0.551 | 0.473 | 0.459 | 0.42 | 0.397 | 0.339
1 µM, coculture fibroblast: HCPF | 0.849 | 0.715 | 0.684 | 0.72 | 0.619 | 0.6 | 0.577 | 0.551 | 0.561
1 µM, coculture fibroblast: HHSteC | 0.826 | 0.725 | 0.68 | 0.616 | 0.545 | 0.523 | 0.48 | 0.458 | 0.39
1 µM, coculture fibroblast: HMF | 0.798 | 0.786 | 0.686 | 0.608 | 0.524 | 0.469 | 0.416 | 0.374 | 0.372
1 µM, coculture fibroblast: HPFa | 0.916 | 0.819 | 0.748 | 0.661 | 0.587 | 0.569 | 0.516 | 0.498 | 0.489
1 µM, coculture fibroblast: HUF | 0.885 | 0.771 | 0.737 | 0.658 | 0.605 | 0.601 | 0.558 | 0.539 | 0.535
1 µM, coculture fibroblast: Hs5 | 0.8676 | 0.8201 | 0.764 | 0.728 | 0.617 | 0.576 | 0.54 | 0.512 | 0.508
1 µM, coculture fibroblast: Hs27A | 0.744 | 0.673 | 0.613 | 0.609 | 0.513 | 0.529 | 0.503 | 0.497 | 0.415
1 µM, coculture fibroblast: Hs343T | 0.78711 | 0.732 | 0.659 | 0.608 | 0.512 | 0.455 | 0.413 | 0.399 | 0.399
1 µM, coculture fibroblast: WS1 | 0.795 | 0.661 | 0.593 | 0.491 | 0.425 | 0.403 | 0.3723 | 0.3709 | 0.3764
